One data set has as its system HLA molecules from shock-frozen tissue samples (CRC, other tumors, normal tissues). Briefly: Identification and label-free relative LC-MS quantitation of HLA-presented tumor associated peptides (presentation profiles, XPRESIDENT). Particulars: additional tumor types: over-presented on more than 5% of measured tumor samples, or presented on more than 5% with ratio of geometric means tumor vs normal larger than 3. Also noted: species or system human; key to Peptide Presentation (presentation score): very highly over-presented on tumors compared to a panel of normal tissues (+++); highly over-presented on tumors compared to a panel of normal tissues (++); over-presented on tumors compared to a panel of normal tissues (+).
On to “25 (SLADRLIGV; listed as Homo sapiens) [compound 25]”, for which the Other relevant organs/diseases result is given as “Prostate, Ovary”.

As to “245 (QLIDYERQL; listed as Homo sapiens) [compound 245]”, the Other relevant organs/diseases result is “Lung, Kidney, Liver, Pancreas, Breast, Esophagus”.

Regarding “10 (RMYNKIFAI; listed as Homo sapiens) [compound 10]”, the Other relevant organs/diseases result is given as “Liver”.

As to “40 (ALSNVIHKV; listed as Homo sapiens) [compound 40]”, the Other relevant organs/diseases result was “Lung, Pancreas, Esophagus”.

Take “133 (RTFEKIEEV; listed as Homo sapiens) [compound 133]”: the Other relevant organs/diseases entry was “Lung, Kidney, Brain, Stomach, Liver, Breast, MCC, Ovary, Esophagus”.

With “87 (LLFDAPDLRL; listed as Homo sapiens) [compound 87]”, the Other relevant organs/diseases result is “Lung, Ovary”.

As for “170 (ALAGGITMV; listed as Homo sapiens) [compound 170]”, the Other relevant organs/diseases result is “Lung, Kidney, Liver, Pancreas, Melanoma, Esophagus”.

As for “181 (NLFDLGGQYLRV; listed as Homo sapiens) [compound 181]”, the Other relevant organs/diseases entry is on record as “Brain, Liver, Ovary”.

On to “138 (KQFEGTVEI; listed as Homo sapiens) [compound 138]”, for which the Other relevant organs/diseases entry is “Esophagus”.

As for “171 (RLQETEGMVAV; listed as Homo sapiens) [compound 171]”, the Other relevant organs/diseases result was “Liver, Leukocytes, MCC”.

Regarding “164 (KMLDEILLQL; listed as Homo sapiens) [compound 164]”, the Other relevant organs/diseases result is reported as “Brain”.

“4 (RLAELTVDEFL; listed as Homo sapiens) [compound 4]”: the Other relevant organs/diseases result is “Lung, Ovary”.

As to “80 (QVDEVVDIMRV; listed as Homo sapiens) [compound 80]”, the Other relevant organs/diseases entry is recorded as “Leukocytes”.

For “178 (YLFREPATI; listed as Homo sapiens) [compound 178]”, the Other relevant organs/diseases result is recorded as “Lung, Brain, Liver, Prostate, Melanoma, Ovary, Esophagus”.

On to “62 (YLAPENGYL; listed as Homo sapiens) [compound 62]”, for which the Other relevant organs/diseases entry is recorded as “Lung, Liver, Melanoma, Esophagus”.

In the case of “107 (ALLGGGPYML; listed as Homo sapiens) [compound 107]”, the Other relevant organs/diseases result is listed as “Lung”.

For the substance “210 (KLAVALLAA; listed as Homo sapiens) [compound 210]”, the Other relevant organs/diseases result was “Lung, Kidney, Brain, Liver, Esophagus”.

“246 (GLTDNIHLV; listed as Homo sapiens) [compound 246]”: the Other relevant organs/diseases result is on record as “Lung, Kidney, Pancreas, Breast, Ovary, Esophagus”.

With “128 (MLDDRAYLV; listed as Homo sapiens) [compound 128]”, the Other relevant organs/diseases entry is “Lung, Brain, Breast, MCC, Ovary, Esophagus”.

In the case of “148 (RLLENMTEVV; listed as Homo sapiens) [compound 148]”, the Other relevant organs/diseases result was “Liver”.

Take “83 (LTIEDGIFEV; listed as Homo sapiens) [compound 83]”: the Other relevant organs/diseases result is reported as “Kidney, Leukocytes, MCC, Melanoma, Esophagus”.

For the substance “149 (YQFDKVGILTL; listed as Homo sapiens) [compound 149]”, the Other relevant organs/diseases entry is “Leukocytes, Melanoma”.

“203 (KLIDLSQVMYL; listed as Homo sapiens) [compound 203]”: the Other relevant organs/diseases result is listed as “Lung, Kidney, Pancreas, Ovary”.

Consider “200 (SAVDFIRTL; listed as Homo sapiens) [compound 200]”, for which the Other relevant organs/diseases result is reported as “Breast, Esophagus”.

Consider “144 (LLNDRIWLA; listed as Homo sapiens) [compound 144]”, for which the Other relevant organs/diseases entry is on record as “Esophagus”.

In the case of “116 (LVYQFVHPI; listed as Homo sapiens) [compound 116]”, the Other relevant organs/diseases entry was “Pancreas, Prostate, Breast, Ovary”.

On to “37 (GLFAGLGGAGA; listed as Homo sapiens) [compound 37]”, for which the Other relevant organs/diseases result is recorded as “Esophagus”.

“121 (SLAPNIISQL; listed as Homo sapiens) [compound 121]”: the Other relevant organs/diseases entry was “Liver, Leukocytes”.

In the case of “250 (ALCEENMRGV; listed as Homo sapiens) [compound 250]”, the Other relevant organs/diseases entry is “Lung, Kidney, Brain, Liver, MCC, Esophagus”.

Regarding “118 (LLADLKTMV; listed as Homo sapiens) [compound 118]”, the Other relevant organs/diseases entry is “Brain, Leukocytes, Melanoma”.

For the substance “167 (SVIDHIHLISV; listed as Homo sapiens) [compound 167]”, the Other relevant organs/diseases result is on record as “Lung, Melanoma, Ovary”.

With “252: peptide found in FAP (gene looked up) (YVYQNNIYL; listed as Homo sapiens) [compound 252]”, the Other relevant organs/diseases entry is listed as “Lung, Stomach, Liver, Pancreas, Breast, Melanoma, Ovary, Esophagus”.

On to “234 (KMFESFIESV; listed as Homo sapiens) [compound 234]”, for which the Other relevant organs/diseases result is on record as “Lung, Kidney, Brain, Liver, Prostate, Ovary, Esophagus”.

The same data set, now with this note: over-presentation on more than 5% of the measured tumor samples, or presentation on more than 5% of the measured tumor samples with ratio of geometric means tumor vs normal tissues larger than 3.
Regarding “25 (SLADRLIGV; listed as Homo sapiens) [compound 25]”, the “Additional Entities (additional tumor types on which the peptide was found)” value (“Additional Entities” below) is reported as “SCLC, BRCA, Uterine Cancer”.

Regarding “100 (SLDDFLATA; listed as Homo sapiens) [compound 100]”, the “Additional Entities” value is given as “PC, CLL, BRCA, Melanoma, Esophageal Cancer, Urinary bladder cancer, Uterine Cancer, Gallbladder Cancer, Bile Duct Cancer”.

In the case of “40 (ALSNVIHKV; listed as Homo sapiens) [compound 40]”, the “Additional Entities” value is “Urinary bladder cancer”.

On to “133 (RTFEKIEEV; listed as Homo sapiens) [compound 133]”, for which the “Additional Entities” value is given as “SCLC, Melanoma, Urinary bladder cancer, Uterine Cancer, AML, NHL”.

For the substance “87 (LLFDAPDLRL; listed as Homo sapiens) [compound 87]”, the “Additional Entities” value was “SCLC, BRCA, Urinary bladder cancer, Uterine Cancer”.

As to “170 (ALAGGITMV; listed as Homo sapiens) [compound 170]”, the “Additional Entities” value is listed as “CLL, Uterine Cancer, Gallbladder Cancer, Bile Duct Cancer, AML, NHL”.

Take “181 (NLFDLGGQYLRV; listed as Homo sapiens) [compound 181]”: the “Additional Entities” value is given as “CLL, Melanoma, Urinary bladder cancer”.

Take “138 (KQFEGTVEI; listed as Homo sapiens) [compound 138]”: the “Additional Entities” value is “CLL, NHL”.

Regarding “171 (RLQETEGMVAV; listed as Homo sapiens) [compound 171]”, the “Additional Entities” value was “Melanoma, OC”.

Take “164 (KMLDEILLQL; listed as Homo sapiens) [compound 164]”: the “Additional Entities” value was “SCLC, RCC, CLL, Melanoma, OC, Urinary bladder cancer, AML, NHL”.

With “4 (RLAELTVDEFL; listed as Homo sapiens) [compound 4]”, the “Additional Entities” value was “CLL, Melanoma, Urinary bladder cancer, AML”.

Turning to “80 (QVDEVVDIMRV; listed as Homo sapiens) [compound 80]”, the “Additional Entities” value is “AML”.

In the case of “178 (YLFREPATI; listed as Homo sapiens) [compound 178]”, the “Additional Entities” value is listed as “BRCA, Urinary bladder cancer, Uterine Cancer, PC”.

As to “62 (YLAPENGYL; listed as Homo sapiens) [compound 62]”, the “Additional Entities” value is “SCLC, CLL, Urinary bladder cancer, Uterine Cancer, Gallbladder Cancer, Bile Duct Cancer, AML, NHL”.

In the case of “107 (ALLGGGPYML; listed as Homo sapiens) [compound 107]”, the “Additional Entities” value is reported as “Urinary bladder cancer, Gallbladder Cancer, Bile Duct Cancer”.

With “179 (RLLSPLSSA; listed as Homo sapiens) [compound 179]”, the “Additional Entities” value was “AML, BRCA, PC, Gallbaldder Cancer, HCC, Melanoma, NHL, OC, Esophageal Cancer, Brain Cancer, NSCLC, SCLC, Uterine Cancer”.

Turning to “148 (RLLENMTEVV; listed as Homo sapiens) [compound 148]”, the “Additional Entities” value is on record as “CLL, OC, Urinary bladder cancer, Uterine Cancer, NHL”.

Turning to “83 (LTIEDGIFEV; listed as Homo sapiens) [compound 83]”, the “Additional Entities” value is listed as “NHL”.

“149 (YQFDKVGILTL; listed as Homo sapiens) [compound 149]”: the “Additional Entities” value is reported as “SCLC, RCC, Brain Cancer”.

On to “99 (KLLEVDLDTV; listed as Homo sapiens) [compound 99]”, for which the “Additional Entities” value is on record as “Gallbladder Cancer, Bile Duct Cancer, AML”.

“144 (LLNDRIWLA; listed as Homo sapiens) [compound 144]”: the “Additional Entities” value was “BRCA, Melanoma, Uterine Cancer”.

For the substance “116 (LVYQFVHPI; listed as Homo sapiens) [compound 116]”, the “Additional Entities” value is reported as “Urinary bladder cancer, Uterine Cancer, Gallbladder Cancer, Bile Duct Cancer”.

“37 (GLFAGLGGAGA; listed as Homo sapiens) [compound 37]”: the “Additional Entities” value is reported as “BRCA, Melanoma, Urinary bladder cancer, Uterine Cancer, Gallbladder Cancer, Bile Duct Cancer”.

For “121 (SLAPNIISQL; listed as Homo sapiens) [compound 121]”, the “Additional Entities” value is “AML”.

Regarding “118 (LLADLKTMV; listed as Homo sapiens) [compound 118]”, the “Additional Entities” value is on record as “NHL”.

Regarding “167 (SVIDHIHLISV; listed as Homo sapiens) [compound 167]”, the “Additional Entities” value was “SCLC, BRCA”.

Still in this data set, the particulars now being: over-presentation on tumors compared to a panel of normal tissues.
Consider “25 (SLADRLIGV; listed as Homo sapiens) [compound 25]”, for which the “Peptide Presentation (presentation score)” value (“Peptide Presentation” below) is reported as “+++”.

For “100 (SLDDFLATA; listed as Homo sapiens) [compound 100]”, the “Peptide Presentation” value is on record as “+”.

“245 (QLIDYERQL; listed as Homo sapiens) [compound 245]”: the “Peptide Presentation” value was “+”.

Take “10 (RMYNKIFAI; listed as Homo sapiens) [compound 10]”: the “Peptide Presentation” value is “+++”.

As for “40 (ALSNVIHKV; listed as Homo sapiens) [compound 40]”, the “Peptide Presentation” value was “+++”.

For “133 (RTFEKIEEV; listed as Homo sapiens) [compound 133]”, the “Peptide Presentation” value is reported as “+++”.

Regarding “170 (ALAGGITMV; listed as Homo sapiens) [compound 170]”, the “Peptide Presentation” value was “++”.

With “138 (KQFEGTVEI; listed as Homo sapiens) [compound 138]”, the “Peptide Presentation” value is listed as “+++”.

In the case of “171 (RLQETEGMVAV; listed as Homo sapiens) [compound 171]”, the “Peptide Presentation” value is “+”.

Consider “164 (KMLDEILLQL; listed as Homo sapiens) [compound 164]”, for which the “Peptide Presentation” value is “++”.

Consider “4 (RLAELTVDEFL; listed as Homo sapiens) [compound 4]”, for which the “Peptide Presentation” value is “+++”.

Regarding “80 (QVDEVVDIMRV; listed as Homo sapiens) [compound 80]”, the “Peptide Presentation” value is recorded as “++”.

For “178 (YLFREPATI; listed as Homo sapiens) [compound 178]”, the “Peptide Presentation” value is “+”.

As for “62 (YLAPENGYL; listed as Homo sapiens) [compound 62]”, the “Peptide Presentation” value is recorded as “++”.

On to “179 (RLLSPLSSA; listed as Homo sapiens) [compound 179]”, for which the “Peptide Presentation” value is “+”.

As for “210 (KLAVALLAA; listed as Homo sapiens) [compound 210]”, the “Peptide Presentation” value is “+++”.

In the case of “27 (LLADEDSSYL; listed as Homo sapiens) [compound 27]”, the “Peptide Presentation” value is “+++”.

In the case of “246 (GLTDNIHLV; listed as Homo sapiens) [compound 246]”, the “Peptide Presentation” value is listed as “+”.

As for “128 (MLDDRAYLV; listed as Homo sapiens) [compound 128]”, the “Peptide Presentation” value is recorded as “++”.

As for “148 (RLLENMTEVV; listed as Homo sapiens) [compound 148]”, the “Peptide Presentation” value is on record as “++”.

For the substance “83 (LTIEDGIFEV; listed as Homo sapiens) [compound 83]”, the “Peptide Presentation” value is “+”.

As for “203 (KLIDLSQVMYL; listed as Homo sapiens) [compound 203]”, the “Peptide Presentation” value was “+”.

On to “144 (LLNDRIWLA; listed as Homo sapiens) [compound 144]”, for which the “Peptide Presentation” value is reported as “+”.

For “37 (GLFAGLGGAGA; listed as Homo sapiens) [compound 37]”, the “Peptide Presentation” value is recorded as “+++”.

For “250 (ALCEENMRGV; listed as Homo sapiens) [compound 250]”, the “Peptide Presentation” value is listed as “+”.

In the case of “111 (HMDDGGYSM; listed as Homo sapiens) [compound 111]”, the “Peptide Presentation” value is recorded as “+”.

On to “252: peptide found in FAP (gene looked up) (YVYQNNIYL; listed as Homo sapiens) [compound 252]”, for which the “Peptide Presentation” value is listed as “+”.

As to “234 (KMFESFIESV; listed as Homo sapiens) [compound 234]”, the “Peptide Presentation” value is reported as “++”.
